This passage reports binding results from article PMC7919321.

By UniProt entry, the sequences of proteins in these tests, tags left out. Where a name states a change or a piece, a line headed by the entry shows the natural chain unless it says otherwise.
UniProt P12830: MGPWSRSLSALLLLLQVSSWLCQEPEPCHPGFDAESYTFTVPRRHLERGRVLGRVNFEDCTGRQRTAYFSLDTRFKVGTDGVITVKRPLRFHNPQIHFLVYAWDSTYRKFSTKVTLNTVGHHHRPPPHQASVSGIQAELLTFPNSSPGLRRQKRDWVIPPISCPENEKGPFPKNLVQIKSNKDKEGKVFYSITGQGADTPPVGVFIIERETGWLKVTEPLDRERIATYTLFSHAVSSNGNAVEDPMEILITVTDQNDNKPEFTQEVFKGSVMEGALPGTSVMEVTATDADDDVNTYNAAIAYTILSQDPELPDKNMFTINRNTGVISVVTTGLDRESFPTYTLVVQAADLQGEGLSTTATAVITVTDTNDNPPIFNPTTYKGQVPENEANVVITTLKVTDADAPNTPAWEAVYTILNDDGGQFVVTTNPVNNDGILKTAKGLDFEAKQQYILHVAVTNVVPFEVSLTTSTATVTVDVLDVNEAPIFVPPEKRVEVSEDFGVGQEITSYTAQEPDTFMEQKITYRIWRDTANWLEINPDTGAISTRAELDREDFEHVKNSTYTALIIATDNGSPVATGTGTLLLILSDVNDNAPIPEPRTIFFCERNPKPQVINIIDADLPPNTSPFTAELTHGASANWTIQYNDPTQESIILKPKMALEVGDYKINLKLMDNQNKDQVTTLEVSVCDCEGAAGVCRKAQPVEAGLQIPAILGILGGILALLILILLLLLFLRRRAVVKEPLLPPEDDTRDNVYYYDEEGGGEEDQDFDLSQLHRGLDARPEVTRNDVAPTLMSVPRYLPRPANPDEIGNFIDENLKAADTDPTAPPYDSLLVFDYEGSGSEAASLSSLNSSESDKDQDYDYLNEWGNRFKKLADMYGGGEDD

Results are given in words; binding and its absence hold for the method and conditions named. Binding seen in cells or lysates may run through a third protein. A result given as binding can be weak or reduced; the word gives no strength. Where a sequence is shown, tags or fusion partners need not be part of it.

The target of the assay is T1, TMEM52B isoform 2, myc-tagged (transmembrane protein 52B) (human) (UniProt Q4KMG9).
T1 sequence: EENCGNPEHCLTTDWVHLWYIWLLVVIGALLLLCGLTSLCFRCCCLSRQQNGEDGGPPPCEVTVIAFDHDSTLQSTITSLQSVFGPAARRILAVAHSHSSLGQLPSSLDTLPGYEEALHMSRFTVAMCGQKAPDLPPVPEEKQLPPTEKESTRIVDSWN
The assay is described as follows: co-IP; HEK293E cells co-transfected with myc-tagged TMEM52B and E-cadherin; lysis and washes in 10 mM Tris pH 7.4, 150 mM NaCl, 0.56 mM EGTA, 1% Triton X-100, 0.5% NP-40; immunoprecipitated with anti-myc at 4 °C for 16 h; blotted with anti-myc and anti-E-cadherin.

For “E-cadherin (human, from an expression vector) (from UniProt P12830)”, the binding entry is recorded as “binds”.
